Source: PubChem BioAssay AID256 (DTP/NCI, 2004)
The list does not hold the whole screen: it gathers tests that were run many times, whatever their T/C, doses with no T/C, and many T/C values between a quarter and a half above the control. Other doses and runs of a compound stand elsewhere. T/C: endpoint of the treated group in % of that of the vehicle group. Some doses have a count of surviving animals in place of a T/C: the source holds a T/C of zero for them, seemingly a mark for toxic or unscored doses. Some survivor counts are full or nearly so, which does not show that the dose was tolerated: the source hardly ever lists a survival T/C far under the control, and the zero likely stands for such cases as well. Survivors were counted at the toxicity check, usually on the fifth day, unless a day is given; later deaths do not show. Schedule codes are those of the source, taken here to give the interval after Q, in days (D) or hours (H), and the number of doses after X. Some schedules carry Z or #; the key to these is not given. Where survival is the endpoint, this PubChem deposit counts one and a half times the control or more as active, and values a quarter to a half above the control carry no call in these data; other NCI protocols may use other cut-offs.

Tested on: CD2F1 mice, L1210 leukemia ip, survival T/C
Assay: NCI In Vivo Anticancer Drug Screen. Data for tumor model L1210 Leukemia (intraperitoneal) in CD2F1 (CDF1) mice
Conditions: higher T/C = longer survival
Method in brief: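 Tumor-bearing mice (transplanted tumor) were split into treated and vehicle control groups, and the measured endpoint of each treated group was divided by that of its vehicle controls.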

[1] = T/C endpoint: mean survival time, dose: 200.0 mg/kg/injection, schedule: Q01DX009 (ip), vehicle: saline
[2] = T/C endpoint: mean survival time, dose: 400.0 mg/kg/injection, schedule: Q01DX009 (ip), vehicle: saline with Tween-80
[3] = T/C endpoint: mean survival time, dose: 25.0 mg/kg/injection, schedule: Q04DX003 (ip), vehicle: saline
[4] = T/C endpoint: mean survival time, dose: 75.0 mg/kg/injection, schedule: Q01DX001 (ip), vehicle: saline
[5] = T/C endpoint: mean survival time, dose: 150.0 mg/kg/injection, schedule: Q01DX001 (ip), vehicle: saline
[6] = T/C endpoint: mean survival time, dose: 300.0 mg/kg/injection, schedule: Q01DX001 (ip), vehicle: saline
[7] = T/C endpoint: mean survival time, dose: 400.0 mg/kg/injection, schedule: Q04DX003 (ip), vehicle: saline with Tween-80
[8] = T/C endpoint: mean survival time, dose: 200.0 mg/kg/injection, schedule: Q04DX003 (ip), vehicle: saline with Tween-80
[9] = T/C endpoint: mean survival time, dose: 400.0 mg/kg/injection, schedule: Q01DX001 (ip), vehicle: saline with Tween-80

SMILES: CC1(C)N=C(N)N=C(N)N1c1cccc(CCCCc2ccc(S(=O)(=O)F)cc2)c1
- survivor count (T/C endpoint: mean survival time, dose: 50.0 mg/kg/injection, schedule: Q01DX009 (ip), vehicle: saline): 1 of 6
- survivor count (T/C endpoint: mean survival time, dose: 100.0 mg/kg/injection, schedule: Q01DX009 (ip), vehicle: saline): 1 of 6
- survivor count [1]: 0 of 6
- survivor count (T/C endpoint: mean survival time, dose: 400.0 mg/kg/injection, schedule: Q01DX009 (ip), vehicle: saline): 0 of 6

SMILES: CC1(C)N=C(N)N=C(N)N1c1ccc(OCC(=O)N2CCOCC2)c(Cl)c1
- survivor count [1]: 1 of 6

SMILES: [Cl][Pt+2][Cl].[NH-]c1cccc(I)c1.[NH-]c1cccc(I)c1
- survivor count (T/C endpoint: mean survival time, dose: 200.0 mg/kg/injection, schedule: Q04DX003 (ip), vehicle: distilled water + Tween-80): 5 of 6

SMILES: C1=CC2C3C=CC(CC3)C2CC1 (stereo unspecified)
- survivor count [2]: 0 of 6

SMILES: CC(=O)OC1C(NC(=O)N(CCCl)N=O)C(OC(C)=O)C(OC(C)=O)C(NC(=O)N(CCCl)N=O)C1OC(C)=O (stereo unspecified)
- T/C (T/C endpoint: mean survival time, dose: 30.0 mg/kg/injection, schedule: Q01DX001 (ip), vehicle: saline with Tween-80): 141 % of control
- T/C (T/C endpoint: mean survival time, dose: 40.0 mg/kg/injection, schedule: Q01DX001 (ip), vehicle: saline with Tween-80): 137 % of control

SMILES: CC12CCC(OC3CCCCO3)CC1=CCC1C2CCC2(C)C1CCC2(O)CCN (stereo unspecified)
- survivor count (T/C endpoint: mean survival time, dose: 25.0 mg/kg/injection, schedule: Q01DX005 (ip), vehicle: other): 6 of 6
- survivor count (T/C endpoint: mean survival time, dose: 50.0 mg/kg/injection, schedule: Q01DX005 (ip), vehicle: other): 1 of 6
- survivor count (T/C endpoint: mean survival time, dose: 100.0 mg/kg/injection, schedule: Q01DX005 (ip), vehicle: other): 0 of 6
- survivor count (T/C endpoint: mean survival time, dose: 125.0 mg/kg/injection, schedule: Q01DX001 (ip), vehicle: Klucel (hydroxypropylcellulose) (HPC)): 2 of 4
- survivor count (T/C endpoint: mean survival time, dose: 250.0 mg/kg/injection, schedule: Q01DX001 (ip), vehicle: Klucel (hydroxypropylcellulose) (HPC)): 0 of 4

SMILES: [Cl][Pt+2][Cl].[NH-]CC([NH-])CN
- survivor count [3]: 3 of 6

SMILES: CCOC(=O)C(C)(C)Br
- survivor count (T/C endpoint: mean survival time, dose: 200.0 mg/kg/injection, schedule: Q01DX009 (ip), vehicle: saline with Tween-80): 2 of 6

SMILES: COc1ccc(CC(N)C(=O)NC2C(COP(=O)(O)OC3CC(n4cc(C)c(=O)[nH]c4=O)OC3CO)OC(n3cnc4c(N(C)C)ncnc43)C2O)cc1 (stereo unspecified)
- survivor count (T/C endpoint: median survival time, dose: 350.0 mg/kg/injection, schedule: Q01DX005 (ip), vehicle: saline): 3 of 6

SMILES: COc1ccc(Nc2ccnc3cc(Cl)ccc23)cc1CN(CCCl)CCCl
- survivor count (T/C endpoint: mean survival time, dose: 12.5 mg/kg/injection, schedule: Q01DX009 (ip), vehicle: saline): 5 of 6

SMILES: COc1cc(Cl)ccc1C
- survivor count [2]: 5 of 6

SMILES: NCCCOCCOCCOCCOCCCN
- survivor count (T/C endpoint: mean survival time, dose: 200.0 mg/kg/injection, schedule: Q01DX001 (ip), vehicle: saline sonified): 3 of 6
- survivor count (T/C endpoint: mean survival time, dose: 400.0 mg/kg/injection, schedule: Q01DX001 (ip), vehicle: saline sonified): 0 of 6

SMILES: Nc1nc(N)c2nc(CN(CCO)c3ccc(C(=O)NC(CCC(=O)O)C(=O)O)cc3)cnc2n1 (stereo unspecified)
- T/C (T/C endpoint: mean survival time, dose: 1.0 mg/kg/injection, schedule: Q01DX009 (ip), vehicle: Klucel (hydroxypropylcellulose) (HPC)): 144 % of control

SMILES: O=C(CBr)CC(O)(C(F)(F)F)C(F)(F)F
- survivor count [3]: 6 of 6
- survivor count (T/C endpoint: mean survival time, dose: 50.0 mg/kg/injection, schedule: Q04DX003 (ip), vehicle: saline): 1 of 6
- survivor count (T/C endpoint: mean survival time, dose: 100.0 mg/kg/injection, schedule: Q04DX003 (ip), vehicle: Klucel (hydroxypropylcellulose) (HPC)): 3 of 6
- survivor count (T/C endpoint: mean survival time, dose: 200.0 mg/kg/injection, schedule: Q04DX003 (ip), vehicle: Klucel (hydroxypropylcellulose) (HPC)): 3 of 6
- survivor count (T/C endpoint: mean survival time, dose: 400.0 mg/kg/injection, schedule: Q04DX003 (ip), vehicle: Klucel (hydroxypropylcellulose) (HPC)): 0 of 6

SMILES: Cc1ccc([P+](Cc2ccccc2)(c2ccccc2)c2ccccc2)cc1
- survivor count [4]: 0 of 6
- survivor count (T/C endpoint: mean survival time, dose: 80.0 mg/kg/injection, schedule: Q01DX001 (ip), vehicle: saline): 0 of 6
- survivor count [5]: 0 of 6
- survivor count [6]: 0 of 6

SMILES: O=C1C(Cl)(Cl)C(=O)C(Cl)(Cl)C(=O)C1(Cl)Cl
- survivor count (T/C endpoint: mean survival time, dose: 100.0 mg/kg/injection, schedule: Q04DX002 (ip), vehicle: saline with Tween-80): 2 of 3

SMILES: Cc1ncc(CO)c(C2NOCc3ccc(Cl)cc32)c1O (stereo unspecified)
- survivor count (T/C endpoint: mean survival time, dose: 100.0 mg/kg/injection, schedule: Q01DX009 (ip), vehicle: Klucel (hydroxypropylcellulose) (HPC)): 0 of 6

SMILES: CC(=O)OC/C(=N\Nc1ccc([N+](=O)[O-])cc1[N+](=O)[O-])c1ccccc1
- survivor count (T/C endpoint: mean survival time, dose: 12.5 mg/kg/injection, schedule: Q01DX001 (ip), vehicle: saline with Tween-80): 6 of 6
- survivor count (T/C endpoint: mean survival time, dose: 200.0 mg/kg/injection, schedule: Q01DX001 (ip), vehicle: saline with Tween-80): 6 of 6

SMILES: CC(C)N=C(N)c1ccc(NC(=O)c2ccc(C(=O)Nc3ccc(C(N)=NC(C)C)cc3)cc2)cc1
- survivor count (T/C endpoint: mean survival time, dose: 12.5 mg/kg/injection, schedule: Q01DX Z (ip), vehicle: water): 2 of 6
- survivor count (T/C endpoint: mean survival time, dose: 25.0 mg/kg/injection, schedule: Q01DX Z (ip), vehicle: water): 0 of 6
- survivor count (T/C endpoint: mean survival time, dose: 50.0 mg/kg/injection, schedule: Q01DX Z (ip), vehicle: water): 0 of 6

SMILES: Nc1cc2[nH]cnc2c([Se])n1
- survivor count [7]: 1 of 6

SMILES: C[N+]1(C)CCC2=CC3C=CC2C1C=C3 (stereo unspecified)
- survivor count (T/C endpoint: median survival time, dose: 100.0 mg/kg/injection, schedule: Q04DX002 (ip), vehicle: saline with Tween-80): 0 of 3
- survivor count (T/C endpoint: median survival time, dose: 200.0 mg/kg/injection, schedule: Q04DX002 (ip), vehicle: saline with Tween-80): 0 of 3

SMILES: C=C1C(=O)OC2/C=C(\C)CC/C=C(/C)CC(OC(=O)/C(=C/CO)CO)C12 (stereo unspecified)
- survivor count (T/C endpoint: mean survival time, dose: 80.0 mg/kg/injection, schedule: Q01DX009 (ip), vehicle: Klucel (hydroxypropylcellulose) (HPC)): 3 of 6

SMILES: [NH-]NC(=S)[S-].[NH-]NC(=S)[S-].[Pd]
- survivor count [8]: 4 of 6
- survivor count [7]: 0 of 6

SMILES: C=C(Br)CNC(=O)OC
- survivor count [8]: 4 of 6
- survivor count [7]: 0 of 6

SMILES: N#CCc1ccccc1
- survivor count (T/C endpoint: mean survival time, dose: 40.0 mg/kg/injection, schedule: Q01DX001 (ip), vehicle: saline): 0 of 6

SMILES: COc1ccc(OC)c(C2(O)C=C(Cl)C(=O)C=C2Cl)c1 (stereo unspecified)
- survivor count [9]: 1 of 3

SMILES: CCCCN1CCCCC1C(=O)Nc1c(C)cccc1C (stereo unspecified)
- survivor count [4]: 2 of 6
- survivor count [5]: 0 of 6
- survivor count [6]: 0 of 6

SMILES: COc1ccc(OCCOC(=O)Nc2cc(Cl)c(OC)cc2OC)cc1
- survivor count (T/C endpoint: mean survival time, dose: 50.0 mg/kg/injection, schedule: Q01DX009 (ip), vehicle: saline with Tween-80): 3 of 3

SMILES: CCC(C#N)C1=CCCCCC1 (stereo unspecified)
- survivor count [8]: 5 of 6
- survivor count [7]: 0 of 6

SMILES: O=S1(=O)C2CCC(C2)C1Cl (stereo unspecified)
- survivor count [8]: 2 of 6
- survivor count [7]: 0 of 6

SMILES: CN(C)c1ccc(C(=C(c2ccc(N(C)C)cc2)c2ccc(N(C)C)cc2)c2ccc(N(C)C)cc2)cc1
- survivor count [5]: 0 of 6
- survivor count [6]: 0 of 6

SMILES: COc1cc(/C=C2\C(=O)NC(=O)N(c3ccccc3)C2=O)cc(OC)c1OC
- survivor count [7]: 0 of 6

SMILES: CCC1(OC(=O)CN2CCN(CCCO)CC2)C(=O)OCc2c1cc1n(c2=O)Cc2cc3ccccc3nc2-1 (stereo unspecified)
- T/C (T/C endpoint: median survival time, dose: 50.0 mg/kg/injection, schedule: Q04DX002 (ip), vehicle: water): 128 % of control

SMILES: CN(C)/C=N\c1ncnc2c1cnn2C1OC(CO)C(O)C1O (stereo unspecified)
- survivor count (T/C endpoint: mean survival time, dose: 100.0 mg/kg/injection, schedule: Q01DX005 (ip), vehicle: water): 5 of 6
- survivor count (T/C endpoint: mean survival time, dose: 200.0 mg/kg/injection, schedule: Q01DX005 (ip), vehicle: water): 5 of 6
- survivor count (T/C endpoint: mean survival time, dose: 400.0 mg/kg/injection, schedule: Q01DX005 (ip), vehicle: water): 5 of 6

SMILES: CCOC(=O)C12CCCCC1C/C(=N/NC(N)=O)CC2 (stereo unspecified)
- survivor count (T/C endpoint: mean survival time, dose: 100.0 mg/kg/injection, schedule: Q01DX001 (ip), vehicle: saline with Tween-80): 6 of 6
- survivor count [8]: 2 of 6
- survivor count [9]: 0 of 6
